# The exact form of at least one protein or probe is not confirmed. For some of these results: A negative result means that nothing was seen under these conditions. For some of these results: The comparison behind a weaker result is the experiment's own reference, which may not be listed here.
# What was measured:
# Assay in all cases: EMSA
# [1] = tested on: Dna2 + Cdc24-YFH + Pxd1(227-351)-5A; conditions: 1 mM EDTA, no RPA, much weaker ability to shift the Dna2-Cdc24-DNA complex; 50 mM Tris-HCl pH 7.5, 1 mM EDTA, 1 mM DTT, 0.1 mg/ml BSA, 50 mM NaCl, 5% glycerol, 15 fmol DNA in 10 µl, room temperature 30 min; 5% PAGE in 1x TBE; native protein; label: 5' 32P on oligo461
# [2] = tested on: Dna2 + Cdc24-YFH + Pxd1(227-351); conditions: 1 mM EDTA, no RPA, complex migrates faster than Dna2-Cdc24-DNA; 50 mM Tris-HCl pH 7.5, 1 mM EDTA, 1 mM DTT, 0.1 mg/ml BSA, 50 mM NaCl, 5% glycerol, 15 fmol DNA in 10 µl, room temperature 30 min; 5% PAGE in 1x TBE; native protein; label: 5' 32P on oligo461
# Dna2 + Cdc24-YFH + RPA = conditions: 1 mM EDTA, with Pxd1(227-351): higher-order complex disrupted, DNA appears bound by RPA only; 50 mM Tris-HCl pH 7.5, 1 mM EDTA, 1 mM DTT, 0.1 mg/ml BSA, 50 mM NaCl, 5% glycerol, 15 fmol DNA in 10 µl, room temperature 30 min; 5% PAGE in 1x TBE; native protein; label: 5' 32P on oligo461
# [3] = tested on: Pxd1(227-351) (Schizosaccharomyces pombe); conditions: 1 mM EDTA, 500 ng Pxd1 alone; 50 mM Tris-HCl pH 7.5, 1 mM EDTA, 1 mM DTT, 0.1 mg/ml BSA, 50 mM NaCl, 5% glycerol, 15 fmol DNA in 10 µl, room temperature 30 min; 5% PAGE in 1x TBE; recombinant protein; label: 5' 32P on oligo461
sequence,measurement,setting,value
CACGCTACCGAATTCTGACTTGCTAGGACATCTTTGCCCACGTTGACCC / GGGTCAACGTGGGCAAAG [5' overhang DNA (oligo461/oligo463)],binding result,[1],binds more weakly
same,binding result,[2],binds
same,binding result,Dna2 + Cdc24-YFH + RPA,binds more weakly
same,binding result,[3],no binding

# Reference: article PMC4159138, “Fission Yeast Pxd1 Promotes Proper DNA Repair by Activating Rad16^XPF and Inhibiting Dna2” (PLoS Biology, 2014)
